# Laboratory results taken from PubChem BioAssay AID248 (DTP/NCI, 2004).
# The list is a part of this screen's results and no random one: it covers a few groups of compounds. Not every dose and run of a compound is shown. T/C is the treated group as % of the vehicle group. Some entries give survivors of the animals treated and no T/C: the source holds a T/C of zero for them, seemingly a mark for toxic or unscored doses. Some survivor counts are full or nearly so, which does not show that the dose was tolerated: survival well below the control is almost never listed, so the zero probably covers shortened survival too. Survivors were counted at the toxicity check, usually on the fifth day, unless a day is given; later deaths do not show. Schedules are NCI's codes, read here as Q, the interval in days (D) or hours (H), X, the number of doses. Some schedule codes hold Z or #, which are not explained here. Where survival is the endpoint, this PubChem deposit counts one and a half times the control or more as active, and values a quarter to a half above the control carry no call in these data; other NCI protocols may use other cut-offs. Some T/C values carry the count of animals alive at the toxicity check (mostly the fifth day); where neither a count nor a note follows, no animal had died by that day. Some entries were tested several times; their values stand side by side, smallest first.
# Tested on: L1210 leukemia ip in BDF1 mice, survival T/C
# Assay: NCI In Vivo Anticancer Drug Screen. Data for tumor model L1210 Leukemia (intraperitoneal) in B6D2F1 (BDF1) mice
# Conditions: higher T/C = longer survival
# [1] = T/C endpoint: mean survival time, dose: 35.0 mg/kg/injection, schedule: Q01DX Z (ip), vehicle: carboxymethylcellulose (CMC)
compound,measurement,setting,value
CC(Cl)CN(CC(C)Cl)C(=O)OCC(N)C(=O)O (stereo unspecified),T/C,"T/C endpoint: mean survival time, dose: 12.5 mg/kg/injection, schedule: Q01DX009 (ip), vehicle: water",98 % of control
same,T/C,"T/C endpoint: mean survival time, dose: 25.0 mg/kg/injection, schedule: Q01DX001 (ip), vehicle: water",102 % of control
same,T/C,"T/C endpoint: mean survival time, dose: 25.0 mg/kg/injection, schedule: Q01DX009 (ip), vehicle: water",98 % of control
same,T/C,"T/C endpoint: mean survival time, dose: 50.0 mg/kg/injection, schedule: Q01DX001 (ip), vehicle: water",102 % of control
same,T/C,"T/C endpoint: mean survival time, dose: 50.0 mg/kg/injection, schedule: Q01DX009 (ip), vehicle: water",98 % of control
same,T/C,"T/C endpoint: mean survival time, dose: 100.0 mg/kg/injection, schedule: Q01DX001 (ip), vehicle: water",95 % of control
same,T/C,"T/C endpoint: mean survival time, dose: 100.0 mg/kg/injection, schedule: Q01DX009 (ip), vehicle: water",100 % of control
same,T/C,"T/C endpoint: mean survival time, dose: 200.0 mg/kg/injection, schedule: Q01DX001 (ip), vehicle: water",98 % of control
same,T/C,"T/C endpoint: mean survival time, dose: 200.0 mg/kg/injection, schedule: Q01DX009 (ip), vehicle: water",101 % of control
same,survivor count,"T/C endpoint: mean survival time, dose: 400.0 mg/kg/injection, schedule: Q01DX001 (ip), vehicle: water",1 of 10
same,survivor count,"T/C endpoint: mean survival time, dose: 400.0 mg/kg/injection, schedule: Q01DX009 (ip), vehicle: water",2 of 10
same,T/C,"T/C endpoint: median survival time, dose: 12.5 mg/kg/injection, schedule: Q01DX009 (ip), vehicle: water",100 % of control
same,T/C,"T/C endpoint: median survival time, dose: 25.0 mg/kg/injection, schedule: Q01DX001 (ip), vehicle: water",90 % of control
same,T/C,"T/C endpoint: median survival time, dose: 25.0 mg/kg/injection, schedule: Q01DX009 (ip), vehicle: water",100 % of control
same,T/C,"T/C endpoint: median survival time, dose: 25.0 mg/kg/injection, schedule: Q04DX003 (ip), vehicle: water",95 % of control
same,T/C,"T/C endpoint: median survival time, dose: 50.0 mg/kg/injection, schedule: Q01DX001 (ip), vehicle: water",90 % of control
same,T/C,"T/C endpoint: median survival time, dose: 50.0 mg/kg/injection, schedule: Q01DX009 (ip), vehicle: water, evaluated on day 15",100 % of control
same,T/C,"T/C endpoint: median survival time, dose: 50.0 mg/kg/injection, schedule: Q01DX009 (ip), vehicle: water, evaluated on day 16",90 % of control
same,T/C,"T/C endpoint: median survival time, dose: 50.0 mg/kg/injection, schedule: Q04DX003 (ip), vehicle: water, evaluated on day 15",100 % of control
same,T/C,"T/C endpoint: median survival time, dose: 50.0 mg/kg/injection, schedule: Q04DX003 (ip), vehicle: water, evaluated on day 16",95 % of control
same,T/C,"T/C endpoint: median survival time, dose: 100.0 mg/kg/injection, schedule: Q01DX001 (ip), vehicle: water, evaluated on day 15",100 % of control
same,T/C,"T/C endpoint: median survival time, dose: 100.0 mg/kg/injection, schedule: Q01DX001 (ip), vehicle: water, evaluated on day 16",100 % of control
same,T/C,"T/C endpoint: median survival time, dose: 100.0 mg/kg/injection, schedule: Q01DX009 (ip), vehicle: water, evaluated on day 15",100 % of control
same,T/C,"T/C endpoint: median survival time, dose: 100.0 mg/kg/injection, schedule: Q01DX009 (ip), vehicle: water, evaluated on day 16",95 % of control
same,T/C,"T/C endpoint: median survival time, dose: 100.0 mg/kg/injection, schedule: Q04DX003 (ip), vehicle: water, evaluated on day 15",100 % of control
same,T/C,"T/C endpoint: median survival time, dose: 100.0 mg/kg/injection, schedule: Q04DX003 (ip), vehicle: water, evaluated on day 16",90 % of control
same,T/C,"T/C endpoint: median survival time, dose: 200.0 mg/kg/injection, schedule: Q01DX001 (ip), vehicle: water, evaluated on day 15",100 % of control
same,T/C,"T/C endpoint: median survival time, dose: 200.0 mg/kg/injection, schedule: Q01DX001 (ip), vehicle: water, evaluated on day 16",100 % of control
same,T/C,"T/C endpoint: median survival time, dose: 200.0 mg/kg/injection, schedule: Q01DX009 (ip), vehicle: water, evaluated on day 15",100 % of control
same,T/C,"T/C endpoint: median survival time, dose: 200.0 mg/kg/injection, schedule: Q01DX009 (ip), vehicle: water, evaluated on day 16",90 % of control
same,T/C,"T/C endpoint: median survival time, dose: 200.0 mg/kg/injection, schedule: Q04DX003 (ip), vehicle: water, evaluated on day 15",100 % of control
same,T/C,"T/C endpoint: median survival time, dose: 200.0 mg/kg/injection, schedule: Q04DX003 (ip), vehicle: water, evaluated on day 16",90 % of control
same,T/C,"T/C endpoint: median survival time, dose: 400.0 mg/kg/injection, schedule: Q01DX001 (ip), vehicle: water, evaluated on day 15",100 % of control
same,T/C,"T/C endpoint: median survival time, dose: 400.0 mg/kg/injection, schedule: Q01DX001 (ip), vehicle: water, evaluated on day 16",100 % of control
same,T/C,"T/C endpoint: median survival time, dose: 400.0 mg/kg/injection, schedule: Q01DX009 (ip), vehicle: water",100 % of control
same,T/C,"T/C endpoint: median survival time, dose: 400.0 mg/kg/injection, schedule: Q04DX003 (ip), vehicle: water, evaluated on day 15",105 % of control
same,T/C,"T/C endpoint: median survival time, dose: 400.0 mg/kg/injection, schedule: Q04DX003 (ip), vehicle: water, evaluated on day 16",90 % of control
same,T/C,"T/C endpoint: median survival time, dose: 800.0 mg/kg/injection, schedule: Q01DX001 (ip), vehicle: water",100 % of control
same,T/C,"T/C endpoint: median survival time, dose: 800.0 mg/kg/injection, schedule: Q01DX009 (ip), vehicle: water",111 % of control
same,T/C,"T/C endpoint: median survival time, dose: 800.0 mg/kg/injection, schedule: Q04DX003 (ip), vehicle: water",111 % of control
same,T/C,"T/C endpoint: median survival time, dose: 1600.0 mg/kg/injection, schedule: Q01DX001 (ip), vehicle: water",100 % of control
same,T/C,"T/C endpoint: median survival time, dose: 1600.0 mg/kg/injection, schedule: Q04DX003 (ip), vehicle: water",111 % of control
same,T/C,"T/C endpoint: median survival time, dose: 3200.0 mg/kg/injection, schedule: Q01DX001 (ip), vehicle: water",111 % of control
O=C(O)COc1ccc(N(CCCl)CCCl)cc1,T/C,"T/C endpoint: mean survival time, dose: 1.0 mg/kg/injection, schedule: Q01DX Z (ip), vehicle: carboxymethylcellulose (CMC)",104 % of control
same,T/C,"T/C endpoint: mean survival time, dose: 1.5 mg/kg/injection, schedule: Q01DX Z (ip), vehicle: carboxymethylcellulose (CMC)",104 % of control
same,T/C,"T/C endpoint: mean survival time, dose: 1.5 mg/kg/injection, schedule: Q01DX Z (ip), vehicle: methylcellulose (MC)",116 % of control
same,T/C,"T/C endpoint: mean survival time, dose: 2.3 mg/kg/injection, schedule: Q01DX Z (ip), vehicle: carboxymethylcellulose (CMC)",115 % of control
same,T/C,"T/C endpoint: mean survival time, dose: 2.3 mg/kg/injection, schedule: Q01DX Z (ip), vehicle: methylcellulose (MC)",130 % of control
same,T/C,"T/C endpoint: mean survival time, dose: 3.5 mg/kg/injection, schedule: Q01DX Z (ip), vehicle: carboxymethylcellulose (CMC)",146 and 150 % of control [5 of 6 alive]
same,T/C,"T/C endpoint: mean survival time, dose: 3.5 mg/kg/injection, schedule: Q01DX Z (ip), vehicle: methylcellulose (MC)","102, 127, 186 % of control"
same,T/C,"T/C endpoint: mean survival time, dose: 5.0 mg/kg/injection, schedule: Q01DX Z (ip), vehicle: methylcellulose (MC)","111, 134, 156 % of control"
same,T/C,"T/C endpoint: mean survival time, dose: 5.3 mg/kg/injection, schedule: Q01DX Z (ip), vehicle: carboxymethylcellulose (CMC)",114 % of control
same,T/C,"T/C endpoint: mean survival time, dose: 8.0 mg/kg/injection, schedule: Q01DX Z (ip), vehicle: carboxymethylcellulose (CMC)",123 % of control
same,T/C,"T/C endpoint: mean survival time, dose: 8.0 mg/kg/injection, schedule: Q01DX Z (ip), vehicle: methylcellulose (MC)",114 and 174 % of control
same,T/C,"T/C endpoint: mean survival time, dose: 12.0 mg/kg/injection, schedule: Q01DX Z (ip), vehicle: carboxymethylcellulose (CMC)",138 and 145 % of control
same,T/C,"T/C endpoint: mean survival time, dose: 12.0 mg/kg/injection, schedule: Q01DX Z (ip), vehicle: methylcellulose (MC)",97 and 126 % of control
same,T/C,"T/C endpoint: mean survival time, dose: 18.0 mg/kg/injection, schedule: Q01DX Z (ip), vehicle: carboxymethylcellulose (CMC)",161 % of control
same,T/C,"T/C endpoint: mean survival time, dose: 27.0 mg/kg/injection, schedule: Q01DX Z (ip), vehicle: carboxymethylcellulose (CMC)",101 % of control
same,T/C,[1],91 % of control
same,survivor count,[1],4 of 6
same,survivor count,"T/C endpoint: mean survival time, dose: 53.0 mg/kg/injection, schedule: Q01DX Z (ip), vehicle: carboxymethylcellulose (CMC)",0 of 6
same,survivor count,"T/C endpoint: mean survival time, dose: 80.0 mg/kg/injection, schedule: Q01DX Z (ip), vehicle: carboxymethylcellulose (CMC)",0 of 6
same,T/C,"T/C endpoint: mean survival time, dose: 100.0 mg/kg/injection, schedule: Q01DX001 (ip), vehicle: saline",105 % of control
same,survivor count,"T/C endpoint: mean survival time, dose: 120.0 mg/kg/injection, schedule: Q01DX Z (ip), vehicle: carboxymethylcellulose (CMC)",0 of 6
same,T/C,"T/C endpoint: mean survival time, dose: 200.0 mg/kg/injection, schedule: Q01DX001 (ip), vehicle: saline",101 % of control
same,T/C,"T/C endpoint: mean survival time, dose: 400.0 mg/kg/injection, schedule: Q01DX001 (ip), vehicle: saline",100 % of control
